Source: patent publication US8017348B1, “Assay for Parkinson's Disease therapeutics” (Elan Pharma International Limited, priority 2005, dated 2011)
Read-outs that look alike come from different tables or passages of the source.

Test system: Parkin
Assay: GFPu assay in HEK293 cells transfected with wild type Parkin (aggresome formation / proteasome function)
Assay type: cell-based
Details: Homo sapiens
Description: A summary of the finalized automation scheme is outlined in FIG. 12. Briefly, cells were manually transfected with Parkin using the Fugene Reagent (Roche) and then incubated for three hours at 37° C. After three hours of treatment with Fugene, transfection is over 80% complete (Roche personal communication). Compounds were then added to the cell plate at a final concentration of 10 uM using the Multimek™ Automated Pipettor. Compounds were incubated with cells for 45 hours at 37° C. and then the media was gently aspirated with the Multimek. A mixture of 1 ug/ml Hoechst dye and 4% paraformaldehyde were then added to the cells for 40 minutes at room temperature using the Titertek Multidrop™ Lab System. Cell plates were subsequently washed using the Tecan PowerWasher and then read on the Cellomcis ArrayScan. A detailed protocol outlining this process step by step is shown in Example 8. Using this protocol, we commonly achieved Z′ values above 0.6 and concomitant S/B ratios above 6 and therefore, the GFPu assay was ready for screening of the LOPAC library.
This example describes a protocol for the GFPu Assay in 96-well format. It will be appreciated that the protocol can be readily modified for other multi-well formats and that certain parameters can vary. […]
11) Read on the ArrayScan using the Target Activation Bioapplication. […]

## COc1cc2c(c(OC)c1OC)-c1ccc(OC)c(=O)cc1[C@@H](NC(C)=O)CC2 [ELN476311, colchicine]
HEK293, GFPu assay, Parkin transfected cells, eight 2-fold dilutions 10 uM to about 78 nM, read-out: Parkin IC50
  IC50: < 78 nM
Parkin expressing HEK293 cells, read-out: IC50 in the GFPu assay
  IC50: < 78 nM
